{"sequences": {"note": "Amino acid sequences for entries named in this document (tags omitted). Residues count along the entry.", "UniProt Q01705, residues 1744-2531": "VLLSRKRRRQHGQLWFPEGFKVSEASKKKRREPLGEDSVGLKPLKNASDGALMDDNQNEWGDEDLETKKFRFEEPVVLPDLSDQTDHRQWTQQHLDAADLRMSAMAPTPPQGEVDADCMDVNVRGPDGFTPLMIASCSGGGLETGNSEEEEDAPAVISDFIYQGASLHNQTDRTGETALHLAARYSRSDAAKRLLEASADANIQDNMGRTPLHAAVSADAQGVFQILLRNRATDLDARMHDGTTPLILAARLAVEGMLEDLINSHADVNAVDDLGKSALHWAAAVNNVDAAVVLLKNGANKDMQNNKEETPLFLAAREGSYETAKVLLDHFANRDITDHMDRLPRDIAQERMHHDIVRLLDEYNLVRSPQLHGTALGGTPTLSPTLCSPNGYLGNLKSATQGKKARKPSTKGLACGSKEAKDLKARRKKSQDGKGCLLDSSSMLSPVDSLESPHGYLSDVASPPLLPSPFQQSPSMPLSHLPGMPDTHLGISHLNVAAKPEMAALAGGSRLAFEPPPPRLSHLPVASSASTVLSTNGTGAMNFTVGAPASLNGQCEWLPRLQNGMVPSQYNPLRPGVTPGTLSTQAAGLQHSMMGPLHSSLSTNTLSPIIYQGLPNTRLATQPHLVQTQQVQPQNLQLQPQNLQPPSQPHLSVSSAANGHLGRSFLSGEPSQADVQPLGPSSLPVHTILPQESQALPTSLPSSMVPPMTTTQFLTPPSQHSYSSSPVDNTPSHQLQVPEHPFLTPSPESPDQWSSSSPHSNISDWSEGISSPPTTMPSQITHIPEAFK"}, "source": "patent US20220155314A1", "about": "“TROPHOBLAST STEM CELL, METHODS OF PREPARATION AND USES THEREOF” (Academia Sinica, priority 2020, published 2022)", "key": {"HA-GCM1 [1]": {"molecular_target": "T1, HA-GCM1 (UniProt Q9NP62)", "T1 sequence (looked up)": "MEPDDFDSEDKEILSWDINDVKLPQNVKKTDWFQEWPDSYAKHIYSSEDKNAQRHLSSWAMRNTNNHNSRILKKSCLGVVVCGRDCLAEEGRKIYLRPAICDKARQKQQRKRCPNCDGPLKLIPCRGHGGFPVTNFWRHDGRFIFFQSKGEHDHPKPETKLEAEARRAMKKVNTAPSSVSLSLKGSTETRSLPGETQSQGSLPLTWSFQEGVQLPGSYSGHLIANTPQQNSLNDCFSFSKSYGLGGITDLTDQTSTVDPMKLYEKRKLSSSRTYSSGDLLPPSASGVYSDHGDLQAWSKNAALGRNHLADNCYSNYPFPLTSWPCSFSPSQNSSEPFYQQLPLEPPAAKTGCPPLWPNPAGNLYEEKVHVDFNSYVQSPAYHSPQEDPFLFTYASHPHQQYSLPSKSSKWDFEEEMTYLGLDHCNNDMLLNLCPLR", "assay": "co-immunoprecipitation and confocal microscopy in transfected 293T cells (figure legend)"}, "HA-GCM1 [2]": {"molecular_target": "T1, HA-GCM1", "assay": "co-immunoprecipitation in 293T cells transfected with pHA-GCM1 and pNotch1IC-FLAG"}}, "note": "Results are given in words; binding and its absence hold for the method and conditions named. In cells and extracts the contact can be indirect. Some results given as binding are weak or reduced against the parent protein; the word gives no strength. Tags and fused reporters may be left off the sequences shown.", "data": [{"substance": "Notch1IC-FLAG (from UniProt Q01705 1744-2531)", "values": [{"measurement": "binding", "setting": "HA-GCM1 [1]", "value": "binds"}, {"measurement": "binding", "setting": "HA-GCM1 [2]", "value": "binds"}]}]}
